Measured values as given in patent US5380668A (University of Utah Research Foundation, priority 1993, dated 1995).

Assay: general procedure: Fmoc solid-phase peptide synthesis
Details: whole synthesis, reversed phase HPLC

In the case of “H2 N-Gly-Gly-Arg-Leu-Pro-Gly-Pro-Ser-Asp-Cys-Gly-COOH (GGRLPGPSDCG)”, the “final purity (method not given)” value is reported as greater than 98%.
